Experimental data reported in patent publication US20120156198A1 (Hoffmann-La Roche, published 2012).
No constants are given. Whether binding was seen depends on the method and setting. Some results given as binding are weak or reduced against the parent protein; the word gives no strength.

Key:
[1] = target: cynomolgus IL-18Rα/IL-18Rβ on transfected cells (cynomolgus); assay: FACS on transfected HEK293 cells, antibody 1 µg/ml
[2] = target: cynomolgus IL-18Rα:Fc (cynomolgus; human); assay: SPR (BIAcore 3000, 25°C), Fc-tagged variant captured, antibody 0.2 µg/ml

Row | Binder | binding [1] | binding [2]
1 | Mab 1G12 (antibody, V domains shown, Monoclonal antibody from immunized NMRI mice; detected with anti-mouse IgG1-PE / anti-mouse IgG; also called F20.1G12; monoclonal antibody 1G12) VH: QVQLQQPGAELVKPGASVRMSCKTSDYTFTSNWMHWVKQRPGQGLEWIGTIDPSDSYTYYNQKFKGRATLTVDTSSSTAYMQLSSLTSEDSAVYYCTTSGDYDADRYFDVWGAGTTVTVSS VL: DIVLTQSPASLGVSLGQRATISCRASKSVSTSGDSYMHWYQQKPGQSPKLLIYLASNLESGVPARFSGSGSGTDFTLNIHPVEEEDAATYYCQQSRELPLSFGAGTKLELK | binds | binds
2 | Mab 2D11 (antibody, V domains shown, Monoclonal antibody from immunized NMRI mice; detected with anti-mouse IgG1-PE / anti-mouse IgG; also called F20.2D11) VH: QVQLQQPGAELVKPGASVKMSCKASDYTFTSNWMHWVKQRPGQGLEWIGTIDPSDSYTYYNQKFKGKATLTVDTSSSTAYMHLSSLTSEDSAVYYCTTSGDYDADRYFDVWGAGTTVTVSS VL: DIVLTQSPASLGVSLGQRATISCRASKSVSTSGDSYMHWYQQKPGQSPKLLIYLASNLESGVPARFSGSGSGTDFTLNIHPVEEEDAATYYCQQSRELPLSFGAGTKLELK | binds | binds
